## Library screen at single concentrations

Amino acid sequences for entries named in this document (tags omitted). Residues count along the entry.
UniProt P9WFT3, whole entry: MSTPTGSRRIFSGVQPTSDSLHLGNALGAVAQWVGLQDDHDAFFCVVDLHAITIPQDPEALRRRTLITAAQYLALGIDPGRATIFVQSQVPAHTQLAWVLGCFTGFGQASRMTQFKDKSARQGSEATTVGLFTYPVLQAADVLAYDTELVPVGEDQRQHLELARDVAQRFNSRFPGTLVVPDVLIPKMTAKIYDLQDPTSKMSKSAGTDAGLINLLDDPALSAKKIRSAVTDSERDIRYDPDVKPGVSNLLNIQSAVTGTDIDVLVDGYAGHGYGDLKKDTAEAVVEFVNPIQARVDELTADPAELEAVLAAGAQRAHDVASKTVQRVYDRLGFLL
UniProt P9WNZ1, whole entry: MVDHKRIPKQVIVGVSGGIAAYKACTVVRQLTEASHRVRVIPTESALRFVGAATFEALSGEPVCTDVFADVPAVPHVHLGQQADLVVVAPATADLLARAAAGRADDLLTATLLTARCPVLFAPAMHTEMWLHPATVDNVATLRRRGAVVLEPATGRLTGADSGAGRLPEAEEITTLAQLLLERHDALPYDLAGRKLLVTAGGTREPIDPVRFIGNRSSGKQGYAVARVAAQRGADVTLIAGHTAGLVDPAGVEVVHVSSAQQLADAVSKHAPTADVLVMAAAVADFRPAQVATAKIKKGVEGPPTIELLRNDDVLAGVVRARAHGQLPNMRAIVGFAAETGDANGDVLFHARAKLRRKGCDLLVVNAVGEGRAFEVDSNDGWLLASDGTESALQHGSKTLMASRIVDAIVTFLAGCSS
UniProt A4I591, 1-473: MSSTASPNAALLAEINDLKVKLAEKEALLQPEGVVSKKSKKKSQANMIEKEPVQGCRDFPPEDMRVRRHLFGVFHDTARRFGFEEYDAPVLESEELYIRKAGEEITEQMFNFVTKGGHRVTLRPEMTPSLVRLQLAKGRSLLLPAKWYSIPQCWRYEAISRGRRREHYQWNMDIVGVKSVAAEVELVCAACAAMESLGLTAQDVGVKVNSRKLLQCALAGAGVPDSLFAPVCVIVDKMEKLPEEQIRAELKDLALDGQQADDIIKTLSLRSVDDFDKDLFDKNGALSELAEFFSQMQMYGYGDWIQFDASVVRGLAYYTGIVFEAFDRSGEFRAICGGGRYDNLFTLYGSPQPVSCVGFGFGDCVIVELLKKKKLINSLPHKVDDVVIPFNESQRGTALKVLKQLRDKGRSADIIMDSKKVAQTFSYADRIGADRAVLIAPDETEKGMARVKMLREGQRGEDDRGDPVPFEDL
UniProt I6X8D2, whole entry: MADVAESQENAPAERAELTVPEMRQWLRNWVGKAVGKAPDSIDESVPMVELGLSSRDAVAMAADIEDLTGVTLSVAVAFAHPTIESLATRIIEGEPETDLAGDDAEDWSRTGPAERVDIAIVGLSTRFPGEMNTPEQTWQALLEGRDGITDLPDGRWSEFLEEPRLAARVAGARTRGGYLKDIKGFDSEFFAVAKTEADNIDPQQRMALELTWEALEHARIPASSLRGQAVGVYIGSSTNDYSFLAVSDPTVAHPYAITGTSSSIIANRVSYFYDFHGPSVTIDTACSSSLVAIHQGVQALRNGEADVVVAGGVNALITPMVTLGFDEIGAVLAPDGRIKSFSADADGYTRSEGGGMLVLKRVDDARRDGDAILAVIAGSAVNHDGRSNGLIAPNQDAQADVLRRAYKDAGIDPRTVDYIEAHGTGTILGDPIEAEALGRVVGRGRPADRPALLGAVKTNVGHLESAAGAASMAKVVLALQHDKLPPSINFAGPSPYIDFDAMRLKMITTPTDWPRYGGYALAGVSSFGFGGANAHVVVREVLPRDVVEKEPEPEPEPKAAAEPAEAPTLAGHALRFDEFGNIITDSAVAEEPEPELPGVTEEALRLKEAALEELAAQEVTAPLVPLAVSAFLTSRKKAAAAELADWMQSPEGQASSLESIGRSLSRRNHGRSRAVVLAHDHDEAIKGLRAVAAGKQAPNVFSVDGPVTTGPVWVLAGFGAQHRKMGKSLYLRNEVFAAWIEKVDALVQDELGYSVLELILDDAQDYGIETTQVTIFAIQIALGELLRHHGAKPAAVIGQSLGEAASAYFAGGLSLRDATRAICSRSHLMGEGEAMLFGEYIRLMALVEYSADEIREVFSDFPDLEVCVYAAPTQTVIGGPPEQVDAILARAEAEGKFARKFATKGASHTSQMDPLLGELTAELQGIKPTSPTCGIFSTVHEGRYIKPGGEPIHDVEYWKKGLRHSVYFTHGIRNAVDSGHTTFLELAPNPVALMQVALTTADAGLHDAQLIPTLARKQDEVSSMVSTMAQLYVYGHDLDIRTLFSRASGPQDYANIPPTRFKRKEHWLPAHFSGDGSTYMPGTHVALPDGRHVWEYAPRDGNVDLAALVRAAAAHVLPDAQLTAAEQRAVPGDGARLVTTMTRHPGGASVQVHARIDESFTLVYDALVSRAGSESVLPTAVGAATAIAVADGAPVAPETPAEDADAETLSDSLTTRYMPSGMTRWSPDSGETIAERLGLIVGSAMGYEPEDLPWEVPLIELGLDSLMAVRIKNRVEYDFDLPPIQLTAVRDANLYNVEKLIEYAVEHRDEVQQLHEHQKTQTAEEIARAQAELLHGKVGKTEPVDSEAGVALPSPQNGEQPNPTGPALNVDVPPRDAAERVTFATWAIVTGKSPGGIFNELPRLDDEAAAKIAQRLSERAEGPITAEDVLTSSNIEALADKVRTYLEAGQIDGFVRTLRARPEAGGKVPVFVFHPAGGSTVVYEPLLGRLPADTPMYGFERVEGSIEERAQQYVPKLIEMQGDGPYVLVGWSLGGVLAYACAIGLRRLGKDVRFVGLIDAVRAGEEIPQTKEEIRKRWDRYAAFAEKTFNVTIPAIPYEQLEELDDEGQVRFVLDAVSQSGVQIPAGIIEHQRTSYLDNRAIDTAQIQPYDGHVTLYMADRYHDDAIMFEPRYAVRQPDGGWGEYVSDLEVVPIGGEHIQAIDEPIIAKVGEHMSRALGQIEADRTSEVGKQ

Source: ChEMBL document CHEMBL3988442, “University of Dundee, Small-Polar-MMV Screening Library” (2021).

MtTrpRS: 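Tryptophan-tRNA ligase, Mycobacterium tuberculosis (UniProt P9WFT3). Enzyme assay of tryptophanyl-tRNA synthetase; the read-out is not stated. Compounds at 10 µM. Direction is not recorded; retested compounds ran higher, which suggests that high means inhibition. Size under these conditions: about 65,000 compounds, about 64 of them at 50% or above in at least one test.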
CoaBC: 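Coenzyme A biosynthesis protein CoaBC, Mycobacterium tuberculosis (UniProt P9WNZ1). Enzyme assay of CoaBC with a phosphate dye (Biomol Green) read at 650 nm. Tested at 30 µM. Higher reads as stronger inhibition, judged from the few compounds that gave an IC50. Most strong results did not repeat in a second test. About 67,000 compounds were tested under these conditions; 0.06% (about 40) showed 50% or more at least once.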
LiHisRS: 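Enzyme assay of histidyl-tRNA synthetase; the read-out is not stated. Target: Histidine-tRNA ligase, Leishmania infantum (UniProt A4I591). Tested at 30 µM. Direction is inferred from retests: higher values go with stronger inhibition. The assay is labelled LdHisRS but filed under L. infantum. Of about 69,000 compounds tested this way, about 410 (0.6%) reached 50% or more in at least one test.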
Pks13 thioesterase: 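Enzyme assay of the thioesterase domain of polyketide synthase 13; the read-out is not stated. Target: Polyketide synthase Pks13, Mycobacterium tuberculosis (UniProt I6X8D2). Tested at 30 µM. The record gives no direction; the compounds picked for IC50 retests had high values, so higher reads as stronger inhibition. About 67,000 compounds were tested under these conditions; 0.46% (about 300) showed 50% or more at least once.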

Results are given as percent effect. The record does not define 0% and 100%; most values in the screen are far below 50% and negative numbers occur (in some assays of this library far below -100). Compounds were drawn at random from those tested, without regard to their results. A dash means the value is not listed here; it may have been measured.

SMILES,MtTrpRS,CoaBC,LiHisRS,Pks13 thioesterase
CS(=O)(=O)N1CCCC12CCN(Cc1nccs1)CC2,-1.762,8.245,-17.54,-14.22
c1cncc(CN(Cc2ccc3c(c2)OCCO3)CC2CCCO2)c1 (centres undefined),1.224,-0.6329,15.66,-5.161
Cc1cccc(CN2CCC(n3cc(CCO)nn3)CC2)c1C,-1.149,3.306,22.67,-11.68
COc1cccc(CN(C)C(C)c2ccon2)c1OCCn1ccnc1 (centres undefined),-1.252,4.348,10.99,-76.34
CC1c2cccn2CCN1C(=O)CCc1nc(C2CC2)no1 (centres undefined),0.4167,1.684,10.75,-2.367
CN(C)C(=O)CNC(=O)c1ccc(Cl)cc1F,5.614,12.28,28.57,-8.934
O=C(c1ccccc1)C1CCN(Cc2cc3c(cc2O)CCC3)CC1,2.786,-,22.86,45.42
CCCc1nnc(NC(=O)NC(CCO)c2cccs2)s1 (centres undefined),-0.07179,-0.1156,17.86,18.6
CC(=O)Nc1ccc(S(=O)(=O)Nc2c(F)cccc2F)cc1,-8.628,-4.435,-7.895,7.619
CC(C)(C)n1cc(C#N)cc1NC(=O)CCNC(=O)c1ccco1,18.59,9.208,13.33,-1.749
O=C(N1CCCC1)N1CC[C@H]2[C@H]1CCN2c1ncccn1,-6.541,1.158,9.615,-38.49
Cn1cc(C2CCCN2C(=O)Cn2ccc3ccccc32)cn1 (centres undefined),-2.767,7.495,10.34,-42.15
COc1ncnc(N)c1CNCc1ccccc1-n1cccn1,2.271,1.942,24.71,-6.741
CC(C)(C)OC(=O)N1CCC(C(=O)NCc2cc3ccccc3[nH]2)C1 (centres undefined),-0.3589,-2.428,21.43,-3.806
COc1ccc(CN(C)C(=O)CSc2nnc(N)s2)c(OC)c1OC,-3.431,-2.521,9.402,5.2
COc1cccc(CNC2CCc3ccc(C)cc32)n1 (centres undefined),-4.956,4.365,16.96,-20.89
COCC(c1ccccn1)N(C)C(=O)c1cc(-c2cccn2C)n[nH]1 (centres undefined),0.1638,9.153,26.76,-34.87
CCc1cnc(C)nc1NC1CC(=O)N(CC2CCCCC2)C1 (centres undefined),-2.667,7.767,16.87,-11
Cc1n[nH]c(C(=O)NCc2ccnc(OCC(F)(F)F)c2)c1Br,-4.874,3.191,39.2,-17.17
CCc1ccccc1OCCN(C)C(=O)CCN1CCCO1,-3.268,8.516,6.667,-12.3
Cn1cc(C2CCCN2Cc2csc(Cc3ccccc3)n2)cn1 (centres undefined),-5.272,0.2625,33.9,-13.57
CS(=O)(=O)NC(=O)c1nnn(-c2ccccc2)c1C1CC1,-1.541,-2.171,11.61,-8.179
CC(C)c1nc(CN2CCOCC2)cs1,12.29,13.61,9.917,-15.1
COCCN(Cc1cnn(C)c1)C(=O)C1CCC(=O)N(C2CCCC2)C1 (centres undefined),5.266,1.378,16.33,-4.257
Cc1ncccc1C(=O)Nc1cccc(C[S+](C)[O-])c1C (centres undefined),0.7341,11.63,19.54,-16.09
CC(C)CCNC(=O)c1ccc2c(=O)n(-c3ccccc3)cnc2c1,0.7498,-1.519,10.53,-1.989
Cc1cc(C(=O)Nc2ccc3c(ccn3CCN3CCOCC3)c2)on1,-1.248,1.168,18.58,5.833
CCC(NC(=O)c1nn(C)cc1C(=O)O)c1ccc(C)cc1 (centres undefined),-,3.313,10.31,8.126
Cc1cc(C(=O)Nc2ccn(CCCN3CCCC3)n2)c(C)o1,0.8414,-3.373,9.89,-
CC(C)c1nccc([C@H]2C[C@@H]3CCN(Cc4ccco4)C[C@H]3O2)n1,3.931,7.079,29.41,-5.083
Cc1ccc(CN2CC[C@H]3C[C@H](C(=O)N4CCCO4)O[C@@H]3C2)o1,5.498,9.053,16.81,18.91
Cc1nn(C)cc1-c1cc(C(F)(F)F)nn1CCC#N,-0.1273,3.316,6.173,-6.437
Cc1cc(NCCNS(=O)(=O)c2cccc(Cl)c2)nc(C)n1,-0.1875,-4.862,7.937,-
CCC[C@H]1CN(S(=O)(=O)N(C)Cc2ccccc2)C[C@@H]1N,-1.162,-20.48,4,-19.72

For reference, 2 entries once more:

| SMILES | MtTrpRS | CoaBC | LiHisRS | Pks13 thioesterase |
|---|---|---|---|---|
| `CCCc1nnc(NC(=O)NC(CCO)c2cccs2)s1` (centres undefined) | -0.07179 | -0.1156 | 17.86 | 18.6 |
| `CS(=O)(=O)NC(=O)c1nnn(-c2ccccc2)c1C1CC1` | -1.541 | -2.171 | 11.61 | -8.179 |